This is one part of the list.
Key:
Experiment in all cases: log2 fold change, soluble protein after heating vs DMSO (PISA); higher = thermal stabilisation; K562 lysate, 10 uM; active = over 0.2 and 3.5 SD of the protein, either way, in both replicates (recomputed)
[1] = compound: CC(=O)c1cnc2ccc(-c3cc(Cl)c(O)c(Cl)c3)nc2c1N[C@H]1CC[C@H](CN(C)C)CC1
Outline: (§1)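 A 30 min treatment with 10 μM compound was applied to crude K562 extract at 1 mg/mL protein in PBS pH 7.4 with 1 mM MgCl2. Heating for 3 min spanned 48°C-58°C, after which aliquots were pooled, adjusted to 0.5% NP-40 at 4°C and spun at 21,000xg for 90 min. TMTpro 16plex LC-MS/MS of the supernatant, with channel sums equalised, gave values recorded as log-two fold change in thermal stability against solvent controls, from duplicates.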

By UniProt entry, the sequences of proteins in these tests, tags left out. Where a name states a change or a piece, a line headed by the entry shows the natural chain unless it says otherwise.
UniProt P78383: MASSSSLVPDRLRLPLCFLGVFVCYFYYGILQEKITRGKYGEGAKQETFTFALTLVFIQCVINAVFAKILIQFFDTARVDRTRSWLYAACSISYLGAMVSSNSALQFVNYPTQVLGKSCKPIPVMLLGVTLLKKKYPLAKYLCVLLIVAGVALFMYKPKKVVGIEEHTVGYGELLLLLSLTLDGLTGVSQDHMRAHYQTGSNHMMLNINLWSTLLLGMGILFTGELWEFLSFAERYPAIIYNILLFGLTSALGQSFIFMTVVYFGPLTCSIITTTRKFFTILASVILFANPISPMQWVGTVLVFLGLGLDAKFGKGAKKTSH
UniProt Q96GZ6: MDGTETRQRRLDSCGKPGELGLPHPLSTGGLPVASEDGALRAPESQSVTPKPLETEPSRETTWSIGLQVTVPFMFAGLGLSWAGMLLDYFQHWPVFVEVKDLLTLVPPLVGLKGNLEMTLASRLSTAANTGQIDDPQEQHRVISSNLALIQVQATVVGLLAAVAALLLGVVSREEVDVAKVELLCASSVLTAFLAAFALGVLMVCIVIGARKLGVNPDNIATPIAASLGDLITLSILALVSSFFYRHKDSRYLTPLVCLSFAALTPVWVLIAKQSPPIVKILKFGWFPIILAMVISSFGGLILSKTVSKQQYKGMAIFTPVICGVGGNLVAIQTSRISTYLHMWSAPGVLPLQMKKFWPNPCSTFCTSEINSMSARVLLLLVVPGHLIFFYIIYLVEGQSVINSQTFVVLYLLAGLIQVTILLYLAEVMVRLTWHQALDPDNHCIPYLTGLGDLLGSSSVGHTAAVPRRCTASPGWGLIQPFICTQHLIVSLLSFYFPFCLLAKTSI
UniProt Q0VAQ4: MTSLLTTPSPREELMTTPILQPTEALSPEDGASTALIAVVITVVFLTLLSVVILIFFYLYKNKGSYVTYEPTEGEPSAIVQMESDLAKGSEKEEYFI
UniProt Q8WWI5: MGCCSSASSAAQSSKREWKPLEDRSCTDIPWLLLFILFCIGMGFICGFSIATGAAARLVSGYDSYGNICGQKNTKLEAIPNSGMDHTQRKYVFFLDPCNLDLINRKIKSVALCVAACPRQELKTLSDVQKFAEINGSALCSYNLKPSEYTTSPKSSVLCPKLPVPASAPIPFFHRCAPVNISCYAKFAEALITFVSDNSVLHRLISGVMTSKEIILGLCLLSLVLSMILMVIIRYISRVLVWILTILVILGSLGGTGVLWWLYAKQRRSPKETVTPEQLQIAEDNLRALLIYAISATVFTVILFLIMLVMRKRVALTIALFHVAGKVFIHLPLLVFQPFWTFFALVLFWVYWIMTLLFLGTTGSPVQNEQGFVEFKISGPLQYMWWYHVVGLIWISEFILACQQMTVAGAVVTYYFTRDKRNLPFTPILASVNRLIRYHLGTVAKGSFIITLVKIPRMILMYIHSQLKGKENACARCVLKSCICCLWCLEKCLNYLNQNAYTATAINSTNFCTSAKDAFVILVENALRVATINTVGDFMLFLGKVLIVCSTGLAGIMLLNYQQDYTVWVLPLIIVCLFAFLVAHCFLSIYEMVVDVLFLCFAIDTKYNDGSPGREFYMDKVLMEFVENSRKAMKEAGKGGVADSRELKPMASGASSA
UniProt O95391: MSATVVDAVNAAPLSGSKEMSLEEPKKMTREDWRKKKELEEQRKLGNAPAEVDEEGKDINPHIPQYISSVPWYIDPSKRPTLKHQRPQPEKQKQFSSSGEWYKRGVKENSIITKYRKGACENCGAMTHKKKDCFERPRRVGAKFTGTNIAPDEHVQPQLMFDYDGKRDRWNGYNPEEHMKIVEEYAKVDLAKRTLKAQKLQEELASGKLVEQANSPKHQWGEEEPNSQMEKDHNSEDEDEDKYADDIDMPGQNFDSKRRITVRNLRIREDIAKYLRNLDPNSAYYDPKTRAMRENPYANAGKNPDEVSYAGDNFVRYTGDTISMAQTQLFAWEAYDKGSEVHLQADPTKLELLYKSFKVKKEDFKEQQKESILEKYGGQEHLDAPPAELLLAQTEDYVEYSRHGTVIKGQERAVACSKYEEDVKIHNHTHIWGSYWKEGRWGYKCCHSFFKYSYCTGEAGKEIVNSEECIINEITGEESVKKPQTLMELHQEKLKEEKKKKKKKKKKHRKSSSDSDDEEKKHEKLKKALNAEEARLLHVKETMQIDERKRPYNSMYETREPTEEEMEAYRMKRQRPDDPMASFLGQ
UniProt Q13433: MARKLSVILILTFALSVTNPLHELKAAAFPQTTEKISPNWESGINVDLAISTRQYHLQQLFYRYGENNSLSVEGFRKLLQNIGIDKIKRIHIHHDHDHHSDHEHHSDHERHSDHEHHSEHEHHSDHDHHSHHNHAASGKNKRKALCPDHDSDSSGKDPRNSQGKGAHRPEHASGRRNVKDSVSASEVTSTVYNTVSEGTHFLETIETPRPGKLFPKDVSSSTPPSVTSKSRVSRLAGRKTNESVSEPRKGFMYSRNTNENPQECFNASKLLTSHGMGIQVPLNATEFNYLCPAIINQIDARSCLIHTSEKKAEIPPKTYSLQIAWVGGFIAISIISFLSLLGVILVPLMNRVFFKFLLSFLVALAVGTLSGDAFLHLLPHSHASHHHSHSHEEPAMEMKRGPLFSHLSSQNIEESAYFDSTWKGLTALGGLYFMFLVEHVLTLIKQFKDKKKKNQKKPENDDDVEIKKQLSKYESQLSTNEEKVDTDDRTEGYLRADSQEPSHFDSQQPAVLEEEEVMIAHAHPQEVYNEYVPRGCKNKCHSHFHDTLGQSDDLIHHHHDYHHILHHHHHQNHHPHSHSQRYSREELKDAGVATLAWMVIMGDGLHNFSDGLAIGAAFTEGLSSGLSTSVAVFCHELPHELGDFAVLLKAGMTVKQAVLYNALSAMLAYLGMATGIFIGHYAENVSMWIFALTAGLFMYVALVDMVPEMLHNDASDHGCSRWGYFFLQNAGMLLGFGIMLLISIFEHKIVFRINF
UniProt Q86WA9: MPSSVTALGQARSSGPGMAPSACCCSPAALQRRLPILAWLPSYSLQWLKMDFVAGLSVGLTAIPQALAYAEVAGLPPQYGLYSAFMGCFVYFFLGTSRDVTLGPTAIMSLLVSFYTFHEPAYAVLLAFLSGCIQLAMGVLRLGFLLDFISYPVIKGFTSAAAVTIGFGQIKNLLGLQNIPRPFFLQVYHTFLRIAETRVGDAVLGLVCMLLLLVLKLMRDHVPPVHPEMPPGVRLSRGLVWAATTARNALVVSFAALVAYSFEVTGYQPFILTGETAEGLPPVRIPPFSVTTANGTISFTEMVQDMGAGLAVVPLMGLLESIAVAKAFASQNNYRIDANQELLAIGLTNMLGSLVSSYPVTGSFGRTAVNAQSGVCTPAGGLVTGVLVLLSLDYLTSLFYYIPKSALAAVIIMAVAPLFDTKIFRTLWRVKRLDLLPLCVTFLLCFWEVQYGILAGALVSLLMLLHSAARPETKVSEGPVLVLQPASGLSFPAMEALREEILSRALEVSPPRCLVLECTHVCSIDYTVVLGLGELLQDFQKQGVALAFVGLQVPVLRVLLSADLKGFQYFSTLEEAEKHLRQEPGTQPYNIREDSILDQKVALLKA
UniProt Q9BZD2: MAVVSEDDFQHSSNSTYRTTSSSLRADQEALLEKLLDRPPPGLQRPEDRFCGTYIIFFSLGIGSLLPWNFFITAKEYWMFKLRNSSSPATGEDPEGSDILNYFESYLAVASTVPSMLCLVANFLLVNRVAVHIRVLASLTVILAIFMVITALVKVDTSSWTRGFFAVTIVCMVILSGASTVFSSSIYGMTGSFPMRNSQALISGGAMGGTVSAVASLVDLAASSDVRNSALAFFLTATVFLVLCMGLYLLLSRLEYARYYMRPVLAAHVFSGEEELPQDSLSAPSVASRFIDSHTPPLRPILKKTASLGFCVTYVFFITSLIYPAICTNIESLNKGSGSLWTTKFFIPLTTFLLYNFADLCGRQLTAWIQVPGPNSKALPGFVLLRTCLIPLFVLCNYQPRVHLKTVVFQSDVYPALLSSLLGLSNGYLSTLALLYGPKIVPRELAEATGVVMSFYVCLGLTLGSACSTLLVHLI
UniProt P84022, whole entry, looked up: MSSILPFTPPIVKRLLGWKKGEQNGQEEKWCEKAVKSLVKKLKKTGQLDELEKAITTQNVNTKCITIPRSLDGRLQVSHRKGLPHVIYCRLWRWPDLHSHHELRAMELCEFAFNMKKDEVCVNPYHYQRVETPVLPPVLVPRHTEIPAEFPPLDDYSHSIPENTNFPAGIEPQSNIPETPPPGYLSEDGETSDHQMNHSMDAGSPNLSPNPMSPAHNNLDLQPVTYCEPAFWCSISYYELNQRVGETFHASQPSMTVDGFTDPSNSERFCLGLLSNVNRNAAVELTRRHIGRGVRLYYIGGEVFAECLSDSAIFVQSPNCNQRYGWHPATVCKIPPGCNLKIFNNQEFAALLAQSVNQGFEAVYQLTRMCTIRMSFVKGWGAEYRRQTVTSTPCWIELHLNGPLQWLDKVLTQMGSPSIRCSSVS
UniProt Q86UD5: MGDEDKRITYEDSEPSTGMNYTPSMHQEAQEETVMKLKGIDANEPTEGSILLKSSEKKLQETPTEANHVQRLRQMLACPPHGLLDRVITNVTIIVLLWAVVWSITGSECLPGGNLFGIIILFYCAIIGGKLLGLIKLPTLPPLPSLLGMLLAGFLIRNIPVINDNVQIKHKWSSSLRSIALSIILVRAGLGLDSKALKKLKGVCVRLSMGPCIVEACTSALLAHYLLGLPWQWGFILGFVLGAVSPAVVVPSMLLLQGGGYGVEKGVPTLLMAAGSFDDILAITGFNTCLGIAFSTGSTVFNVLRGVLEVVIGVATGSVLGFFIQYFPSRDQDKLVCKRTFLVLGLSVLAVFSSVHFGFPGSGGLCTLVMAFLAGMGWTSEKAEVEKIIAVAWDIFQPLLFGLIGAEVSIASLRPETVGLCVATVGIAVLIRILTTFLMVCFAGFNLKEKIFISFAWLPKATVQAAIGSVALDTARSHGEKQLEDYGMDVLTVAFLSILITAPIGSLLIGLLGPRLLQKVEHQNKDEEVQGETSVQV
UniProt Q96A46: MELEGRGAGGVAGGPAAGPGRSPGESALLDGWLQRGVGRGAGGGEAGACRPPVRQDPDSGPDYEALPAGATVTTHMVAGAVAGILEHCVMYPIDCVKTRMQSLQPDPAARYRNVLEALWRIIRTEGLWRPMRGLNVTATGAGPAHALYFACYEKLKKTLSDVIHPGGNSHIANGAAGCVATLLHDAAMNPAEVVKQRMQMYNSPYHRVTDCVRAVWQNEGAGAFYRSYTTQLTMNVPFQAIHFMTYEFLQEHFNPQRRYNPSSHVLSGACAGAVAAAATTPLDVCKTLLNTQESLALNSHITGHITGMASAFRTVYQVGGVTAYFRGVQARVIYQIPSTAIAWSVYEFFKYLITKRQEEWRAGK
UniProt Q9C0K1: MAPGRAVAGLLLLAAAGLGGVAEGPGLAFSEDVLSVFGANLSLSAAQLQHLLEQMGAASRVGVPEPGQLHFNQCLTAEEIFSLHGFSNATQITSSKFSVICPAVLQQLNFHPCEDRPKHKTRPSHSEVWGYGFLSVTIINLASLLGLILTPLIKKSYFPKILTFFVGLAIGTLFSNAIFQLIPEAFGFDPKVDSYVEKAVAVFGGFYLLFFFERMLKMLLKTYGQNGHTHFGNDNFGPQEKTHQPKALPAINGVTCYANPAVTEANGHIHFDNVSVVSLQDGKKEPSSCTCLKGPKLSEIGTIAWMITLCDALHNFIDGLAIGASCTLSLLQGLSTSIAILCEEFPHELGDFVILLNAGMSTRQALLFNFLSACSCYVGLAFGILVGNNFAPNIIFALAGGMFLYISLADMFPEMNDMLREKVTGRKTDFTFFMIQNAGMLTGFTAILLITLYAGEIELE
UniProt Q96NT5: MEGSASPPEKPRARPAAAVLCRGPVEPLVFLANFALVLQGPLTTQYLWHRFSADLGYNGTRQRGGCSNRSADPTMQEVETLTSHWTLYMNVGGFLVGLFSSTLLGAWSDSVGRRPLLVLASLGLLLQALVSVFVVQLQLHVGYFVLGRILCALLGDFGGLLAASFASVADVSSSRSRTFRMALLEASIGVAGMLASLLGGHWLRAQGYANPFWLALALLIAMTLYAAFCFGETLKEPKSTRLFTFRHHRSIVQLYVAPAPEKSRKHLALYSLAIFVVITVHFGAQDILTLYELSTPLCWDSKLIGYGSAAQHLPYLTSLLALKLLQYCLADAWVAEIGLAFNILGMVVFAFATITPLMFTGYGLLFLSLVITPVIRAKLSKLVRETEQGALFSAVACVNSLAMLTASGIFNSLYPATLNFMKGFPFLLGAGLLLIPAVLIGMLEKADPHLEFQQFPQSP
UniProt P16260: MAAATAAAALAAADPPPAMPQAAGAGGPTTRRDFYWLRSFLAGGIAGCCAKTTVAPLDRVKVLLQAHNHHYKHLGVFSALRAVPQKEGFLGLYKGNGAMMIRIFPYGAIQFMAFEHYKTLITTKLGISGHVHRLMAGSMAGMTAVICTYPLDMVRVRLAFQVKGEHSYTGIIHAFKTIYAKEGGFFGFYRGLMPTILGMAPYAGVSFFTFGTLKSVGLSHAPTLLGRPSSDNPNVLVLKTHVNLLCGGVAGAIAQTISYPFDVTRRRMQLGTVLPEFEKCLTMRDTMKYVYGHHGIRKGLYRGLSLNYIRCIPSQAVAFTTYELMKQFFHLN

[2] = compound: CC1=C(C2=C(C=C1)C(=O)C3=CC=CC=C3N2CCCN)C
Outline: as §1

[3] = compound: CC1=CC=C(C=C1)SC2=C3C=C(SC3=CN=C2)C(=O)N
Outline: as §1

[4] = compound: CC(C)(C)Cn1c(N)nc2ccc(-c3[nH]c(C(C)(C)C)nc3-c3ccc(F)cc3)nc21 [ralimetinib]
Outline: as §1

[5] = compound: CC(C)(O)CC(=O)NCCn1ccc2ncnc(Nc3ccc(Oc4cccc(C(F)(F)F)c4)c(Cl)c3)c21
Outline: as §1

[6] = compound: CC(C)C1=C2N=C(C=C(N2N=C1)NCC3=CC=CC=C3)NCCCCCCN
Outline: as §1

[7] = compound: CC1=C(C(CC(=O)N1)C2=CC=C(C=C2)C(F)(F)F)C(=O)NC3=C(C=C4C(=C3)C=NN4)F
Outline: as §1

[8] = compound: CC1=C(C=C(C=C1)NC(=O)C2=CC(=CC=C2)C(C)(C)C#N)NC3=CC4=C(C=C3)N=CN(C4=O)C
Outline: as §1

[9] = compound: CC1=C(C=C(C=C1)NC(=O)C2=CC(=CC=C2)N(C)C)NC(=O)C3=CC=C(C=C3)O
Outline: as §1

[10] = compound: C=CC(=O)N1CCC[C@@H](n2nc(-c3ccc(Oc4ccccc4)cc3)c3c(N)ncnc32)C1 [ibrutinib]
Outline: as §1

Measured: log2 fold change

SLC8B1 (UniProt Q6J4K2)
inactive: [1] 0.061 | [2] 0.05 | [3] 0.067

SLC35B1 isoform 2 (UniProt P78383)
inactive: [1] -0.04 | [4] 0.062 | [5] -0.016 | [6] 0.005 | [7] 0.041 | [2] -0.004 | [8] 0.07 | [9] 0.035 | [3] -0.107

SLFN14 (UniProt P0C7P3)
inactive: [10] -0.119 | [8] -0.017

SLC35D1 (UniProt Q9NTN3)
inactive: [8] 0.039

SLC41A3 isoform 9 (UniProt Q96GZ6)
inactive: [10] 0.025 | [4] -0.151 | [5] 0.023 | [7] 0.03 | [9] 0.019

SLX4 (UniProt Q8IY92)
inactive: [6] 0.151 | [2] 0

SMAGP (UniProt Q0VAQ4)
inactive: [1] -0.095 | [4] 0.092 | [5] 0.037 | [6] 0 | [7] 0.043 | [2] 0.107 | [8] 0.065 | [9] 0.045 | [3] 0.113

SLC43A3 (UniProt Q8NBI5)
inactive: [10] 0.007 | [1] -0.454 | [4] 0.032 | [5] 0.026 | [9] 0.09 | [3] -0.235

SLC35A1 (UniProt P78382)
inactive: [10] 0.061 | [6] 0.117 | [7] -0.022 | [8] 0.142

SLC44A1 (UniProt Q8WWI5)
inactive: [4] 0.117 | [5] -0.263 | [2] -0.237 | [9] -0.012

Two records drawn at random from the list so far, as already listed:
SLX4 (UniProt Q8IY92)
inactive: [6] 0.151 | [2] 0

SLC43A3 (UniProt Q8NBI5)
inactive: [10] 0.007 | [1] -0.454 | [4] 0.032 | [5] 0.026 | [9] 0.09 | [3] -0.235

(cont.)

SLC25A23 isoform 3 (UniProt Q9BV35)
inactive: [1] 0.069 | [4] -0.041 | [5] -0.014 | [6] -0.063 | [2] -0.041 | [8] -0.087 | [9] -0.073 | [3] -0.249

SLC38A6 isoform 2 (UniProt Q8IZM9)
inactive: [6] -0.09

SLC27A6 (UniProt Q9Y2P4)
inactive: [6] 0.159

SLU7 (UniProt O95391)
inactive: [10] -0.084 | [4] -0.013 | [5] -0.018 | [6] 0.045 | [7] -0.029 | [2] -0.015 | [8] 0 | [9] -0.031

SLC39A6 (UniProt Q13433)
inactive: [1] 0.011 | [4] -0.021 | [5] -0.073 | [6] 0.011 | [7] -0.018 | [8] -0.022 | [9] -0.026 | [3] -0.037

SLC26A11 (UniProt Q86WA9)
inactive: [6] 0.253 | [8] 0.088

SLC29A3 (UniProt Q9BZD2)
inactive: [1] 0.094 | [4] 0.094 | [5] -0.021 | [6] -0.006 | [7] 0 | [8] 0.019 | [9] 0.017 | [3] -0.081

SLC39A13 (UniProt Q96H72)
inactive: [4] 0.004 | [5] -0.137 | [6] -0.003 | [9] 0.25

SLC9A7 (UniProt Q96T83)
inactive: [10] 0.118 | [1] -0.126 | [8] -0.417 | [3] -0.102

SLC35A3 isoform 2 (UniProt Q9Y2D2)
inactive: [1] -0.034 | [4] -0.027 | [5] 0.234 | [6] -0.027 | [7] -0.133 | [8] 0.111 | [9] -0.025 | [3] 0.051

SLC41A1 (UniProt Q8IVJ1)
inactive: [1] 0.007 | [4] -0.003 | [5] 0.112 | [6] -0.037 | [7] -0.023 | [8] -0.081 | [9] 0.09 | [3] 0.041

SMAD3 (UniProt P84022)
inactive: [1] 0.018 | [4] -0.055 | [5] -0.007 | [7] -0.018 | [2] 0.007 | [8] 0.024 | [9] -0.005 | [3] 0.012

SLC50A1 (UniProt Q9BRV3)
inactive: [1] -0.085 | [4] -0.1 | [5] -0.483 | [6] -0.095 | [2] -0.053 | [8] 0.16 | [9] 0.04 | [3] -0.065

SLC23A2 (UniProt Q9UGH3)
inactive: [1] 0.12 | [4] 0.023 | [5] -0.117 | [6] -0.039 | [2] 0.002 | [8] 0.037 | [9] -0.004 | [3] 0.142

SLCO4A1 (UniProt Q96BD0)
inactive: [10] 0.081 | [7] 0.115

SLC9B2 (UniProt Q86UD5)
inactive: [1] -0.029 | [4] -0.16 | [5] -0.176 | [8] -0.167 | [9] 0.034 | [3] -0.036

SMAD5 (UniProt Q99717)
inactive: [10] 0.084 | [6] -0.025 | [7] 0.189 | [2] 0.036 | [8] 0.105

SLC25A28 (UniProt Q96A46)
inactive: [8] 0.168

SLC39A8 (UniProt Q9C0K1)
inactive: [1] -0.115 | [4] 0.116 | [5] -0.001 | [6] 0.024 | [7] 0.036 | [8] 0.067 | [9] 0.02 | [3] 0.02

SLC66A3 (UniProt Q8N755)
inactive: [1] 0.033 | [2] -0.052 | [8] -0.193 | [3] 0.006

SLC40A1 (UniProt Q9NP59)
inactive: [1] -0.028 | [4] -0.037 | [5] -0.096 | [6] 0.042 | [7] -0.017 | [2] 0.049 | [8] -0.034 | [9] 0.041 | [3] -0.055

SLC46A1 (UniProt Q96NT5)
inactive: [1] 0.103 | [6] -0.03 | [2] -0.144 | [3] -0.065

SLC25A16 (UniProt P16260)
inactive: [6] -0.04 | [7] 0.126 | [8] -0.012
